Reference: PubChem BioAssay AID256 (DTP/NCI, 2004)
The list shows only some results of the screen, not a fair sample: it is rich in T/C values a quarter to a half above the control, in often repeated tests (any T/C) and in doses without a T/C. Further doses and runs are listed elsewhere. T/C gives the treated animals as a percentage of the vehicle group. Some doses have a count of surviving animals in place of a T/C: the source holds a T/C of zero for them, seemingly a mark for toxic or unscored doses. Some doses without a T/C left all or most animals alive at the check, yet need not have been tolerated: survival well below the control is almost never listed, so the zero probably covers shortened survival too. Counts of survivors are from the toxicity check (mostly the fifth day) where no day follows; animals may have died later. Schedule codes are those of the source, taken here to give the interval after Q, in days (D) or hours (H), and the number of doses after X. Some doses were run more than once; the results are listed from low to high. For survival time, this PubChem deposit counts one and a half times the control or more as active, and values a quarter to a half above the control carry no call in these data; other NCI protocols may use other cut-offs. Some T/C values are followed by the survivors on the day toxicity was checked, most often the fifth; where none is given, no animal had died by that day.

System: CD2F1 mice, L1210 leukemia ip, survival T/C
Assay: NCI In Vivo Anticancer Drug Screen. Data for tumor model L1210 Leukemia (intraperitoneal) in CD2F1 (CDF1) mice
Conditions: higher T/C = longer survival
Outline: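 Compound-dosed mice with transplantable tumor versus matched vehicle controls; endpoint ratio T/C reported.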

[1] = T/C endpoint: mean survival time, dose: 8.0 mg/kg/injection, schedule: Q01DX009 (ip), vehicle: saline
[2] = T/C endpoint: mean survival time, dose: 400.0 mg/kg/injection, schedule: Q04DX003 (ip), vehicle: saline with Tween-80
[3] = T/C endpoint: mean survival time, dose: 100.0 mg/kg/injection, schedule: Q04DX003 (ip), vehicle: saline with Tween-80
[4] = T/C endpoint: mean survival time, dose: 200.0 mg/kg/injection, schedule: Q04DX003 (ip), vehicle: saline with Tween-80

For `Nc1ncnc2c1ncn2C1C=C(CO)C(O)C1O` (centres undefined), the T/C (T/C endpoint: mean survival time, dose: 0.5 mg/kg/injection, schedule: Q01DX009 (ip), vehicle: saline) was 107 [9 of 10 alive], 122, 127 [5 of 6 alive], 129, 153 % of control, the T/C (T/C endpoint: mean survival time, dose: 1.0 mg/kg/injection, schedule: Q01DX009 (ip), vehicle: Klucel (hydroxypropylcellulose) (HPC)) was 129 % of control and the T/C (T/C endpoint: mean survival time, dose: 1.0 mg/kg/injection, schedule: Q01DX009 (ip), vehicle: saline) was 121 [9 of 10 alive], 132, 135, 152, 162 % of control. For the same molecule, the T/C (T/C endpoint: mean survival time, dose: 2.0 mg/kg/injection, schedule: Q01DX009 (ip), vehicle: Klucel (hydroxypropylcellulose) (HPC)) was 127 and 140 % of control, the T/C (T/C endpoint: mean survival time, dose: 2.0 mg/kg/injection, schedule: Q01DX009 (ip), vehicle: saline) was 130, 132, 152, 153, 196 % of control and the T/C (T/C endpoint: mean survival time, dose: 4.0 mg/kg/injection, schedule: Q01DX009 (ip), vehicle: Klucel (hydroxypropylcellulose) (HPC)) was 147 % of control. For the same molecule, the T/C (T/C endpoint: mean survival time, dose: 4.0 mg/kg/injection, schedule: Q01DX009 (ip), vehicle: saline) was 144, 155, 165, 177 [9 of 10 alive], 224 % of control, the survivor count (T/C endpoint: mean survival time, dose: 8.0 mg/kg/injection, schedule: Q01DX009 (ip), vehicle: Klucel (hydroxypropylcellulose) (HPC)) was 6 of 10 and the T/C [1] was 99 [7 of 10 alive] and 150 % of control. The survivor count [1] was 0 of 10, 0 of 6, 3 of 6 and the survivor count (T/C endpoint: mean survival time, dose: 16.0 mg/kg/injection, schedule: Q01DX009 (ip), vehicle: saline) was 0 of 6 and 3 of 6.

`Clc1cccc(Cl)c1C(Nc1nncs1)Nc1nncs1` was tested, and the T/C (T/C endpoint: median survival time, dose: 50.0 mg/kg/injection, schedule: Q01DX005 (ip), vehicle: saline with Tween-80) was 131 % of control, the T/C (T/C endpoint: median survival time, dose: 100.0 mg/kg/injection, schedule: Q01DX005 (ip), vehicle: saline with Tween-80) was 134 % of control and the T/C (T/C endpoint: median survival time, dose: 200.0 mg/kg/injection, schedule: Q01DX005 (ip), vehicle: saline with Tween-80) was 148 % of control [4 of 5 alive]. The survivor count (T/C endpoint: median survival time, dose: 667.0 mg/kg/injection, schedule: Q01DX005 (ip), vehicle: saline with Tween-80) was 3 of 6 and the survivor count (T/C endpoint: median survival time, dose: 1111.0 mg/kg/injection, schedule: Q01DX005 (ip), vehicle: saline with Tween-80) was 2 of 6.

For `O=C(Nc1cccc(O)c1)C(Cl)=C(Cl)Cl`, the T/C (T/C endpoint: median survival time, dose: 3.12 mg/kg/injection, schedule: Q01DX005 (ip), vehicle: other) was 125 % of control and the survivor count (T/C endpoint: median survival time, dose: 50.0 mg/kg/injection, schedule: Q01DX005 (ip), vehicle: other) was 4 of 6.

With `Clc1cc(Cl)cc(Nc2nc(C(Cl)(Cl)Cl)nc(C(Cl)(Cl)Cl)n2)c1` the survivor count [2] was 3 of 6.

For `OCc1ccc[n+](CCc2c[nH]c3ccccc23)c1`, the survivor count (T/C endpoint: mean survival time, dose: 200.0 mg/kg/injection, schedule: Q01DX009 (ip), vehicle: saline with Tween-80) was 1 of 6.

For `COc1cccc2c1C(=O)CC2`, the survivor count (T/C endpoint: mean survival time, dose: 150.0 mg/kg/injection, schedule: Q01DX009 (ip), vehicle: Klucel (hydroxypropylcellulose) (HPC)) was 3 of 6, the survivor count (T/C endpoint: mean survival time, dose: 225.0 mg/kg/injection, schedule: Q01DX009 (ip), vehicle: Klucel (hydroxypropylcellulose) (HPC)) was 3 of 6 and the survivor count (T/C endpoint: mean survival time, dose: 335.0 mg/kg/injection, schedule: Q01DX009 (ip), vehicle: Klucel (hydroxypropylcellulose) (HPC)) was 0 of 6.

`O=C[N]([Hg][Cl])c1ccccc1` was tested, and the survivor count (T/C endpoint: mean survival time, dose: 12.5 mg/kg/injection, schedule: Q01DX009 (ip), vehicle: saline with Tween-80) was 0 of 6, the survivor count (T/C endpoint: mean survival time, dose: 25.0 mg/kg/injection, schedule: Q01DX009 (ip), vehicle: saline with Tween-80) was 0 of 6 and the survivor count (T/C endpoint: mean survival time, dose: 25.0 mg/kg/injection, schedule: Q04DX002 (ip), vehicle: saline with Tween-80) was 0 of 3. The survivor count (T/C endpoint: mean survival time, dose: 50.0 mg/kg/injection, schedule: Q04DX002 (ip), vehicle: saline with Tween-80) was 0 of 3 and the survivor count (T/C endpoint: mean survival time, dose: 100.0 mg/kg/injection, schedule: Q04DX002 (ip), vehicle: saline with Tween-80) was 0 of 3.

`COc1cccc2c1C(=O)c1c(O)c3c(c(O)c1C2=O)C[C@@](O)(/C(C)=N/NC(=O)c1ccc(-c2ccccc2)cc1)C[C@@H]3OC1CC(N)C(O)C(C)O1` (some centres undefined) was tested, and the T/C (T/C endpoint: mean survival time, dose: 0.5 mg/kg/injection, schedule: Q01DX009 (ip), vehicle: water) was 139 % of control, the T/C (T/C endpoint: mean survival time, dose: 1.0 mg/kg/injection, schedule: Q01DX009 (ip), vehicle: water) was 131 % of control [5 of 6 alive] and the T/C (T/C endpoint: mean survival time, dose: 2.0 mg/kg/injection, schedule: Q01DX009 (ip), vehicle: water) was 125 % of control.

For `O=S(=O)(c1cccc(N=C=S)c1)c1cccc(N=C=S)c1`, the survivor count (T/C endpoint: median survival time, dose: 50.0 mg/kg/injection, schedule: Q01DX009 (ip), vehicle: Klucel (hydroxypropylcellulose) (HPC)) was 2 of 6 and the survivor count (T/C endpoint: median survival time, dose: 100.0 mg/kg/injection, schedule: Q01DX009 (ip), vehicle: Klucel (hydroxypropylcellulose) (HPC)) was 0 of 6.

For `N=C(N)c1ccc(N)cc1`, the survivor count (T/C endpoint: mean survival time, dose: 400.0 mg/kg/injection, schedule: Q04DX003 (ip), vehicle: saline) was 1 of 6.

`Cc1[nH]c(=O)[nH]c(=O)c1NC(=O)c1ccccc1[N+](=O)[O-]` was tested, and the survivor count [3] was 2 of 6, the survivor count [4] was 3 of 6 and the survivor count [2] was 1 of 6.

`CC1(C[N+](C)(C)C)COC(C)(C)O1` (centres undefined) was tested, and the survivor count (T/C endpoint: mean survival time, dose: 200.0 mg/kg/injection, schedule: Q01DX001 (ip), vehicle: saline with Tween-80) was 0 of 6 and the survivor count (T/C endpoint: mean survival time, dose: 400.0 mg/kg/injection, schedule: Q01DX001 (ip), vehicle: saline with Tween-80) was 0 of 6.

In the case of `O=C(O)c1cc([N+](=O)[O-])cc([N+](=O)[O-])c1` (tested in a mixture with another compound), the survivor count (T/C endpoint: mean survival time, dose: 400.0 mg/kg/injection, schedule: Q04DX002 (ip), vehicle: saline with Tween-80) is reported as 0 of 3.

For `NC(=S)N/N=C/c1c(O)ccc2ccccc12`, the survivor count [3] was 3 of 6, the survivor count [4] was 0 of 6 and the survivor count [2] was 2 of 6. The survivor count (T/C endpoint: mean survival time, dose: 800.0 mg/kg/injection, schedule: Q04DX003 (ip), vehicle: saline with Tween-80) was 0 of 6.

`NC(=O)c1[nH]nc(C2OC(CO)C(O)C2O)c1O` (centres undefined) was tested, and the T/C (T/C endpoint: median survival time, dose: 0.67 mg/kg/injection, schedule: Q01DX009 (ip), vehicle: saline) was 126 % of control, the T/C (T/C endpoint: median survival time, dose: 1.0 mg/kg/injection, schedule: Q01DX009 (ip), vehicle: saline) was 131 % of control and the T/C (T/C endpoint: median survival time, dose: 2.0 mg/kg/injection, schedule: Q01DX009 (ip), vehicle: saline) was 131 % of control. For the same molecule, the T/C (T/C endpoint: median survival time, dose: 2.0 mg/kg/injection, schedule: Q04DX003 (ip), vehicle: saline, evaluated on day 5) was 103, 107, 110 % of control, the T/C (T/C endpoint: median survival time, dose: 2.0 mg/kg/injection, schedule: Q04DX003 (ip), vehicle: saline, evaluated on day 7) was 113 % of control and the T/C (T/C endpoint: median survival time, dose: 4.0 mg/kg/injection, schedule: Q04DX003 (ip), vehicle: saline, evaluated on day 5) was 106, 111, 114 % of control. For the same molecule, the T/C (T/C endpoint: median survival time, dose: 4.0 mg/kg/injection, schedule: Q04DX003 (ip), vehicle: saline, evaluated on day 7) was 117 % of control, the T/C (T/C endpoint: median survival time, dose: 8.0 mg/kg/injection, schedule: Q04DX003 (ip), vehicle: saline) was 130 % of control and the T/C (T/C endpoint: median survival time, dose: 16.0 mg/kg/injection, schedule: Q04DX003 (ip), vehicle: saline) was 125 and 128 % of control. The T/C (T/C endpoint: median survival time, dose: 32.0 mg/kg/injection, schedule: Q04DX003 (ip), vehicle: saline) was 128 % of control.

In the case of `c1ccc2c[n+](CCc3c[nH]c4ccccc34)ccc2c1`, the survivor count (T/C endpoint: mean survival time, dose: 100.0 mg/kg/injection, schedule: Q04DX002 (ip), vehicle: other) is reported as 0 of 3.

`CCOc1cc(C=Nc2cc(Br)c(O)c(Br)c2)ccc1N(CCCl)CCCl` was tested, and the T/C (T/C endpoint: mean survival time, dose: 100.0 mg/kg/injection, schedule: Q01DX001 (ip), vehicle: carboxymethylcellulose (CMC)) was 132 % of control, the survivor count (T/C endpoint: mean survival time, dose: 200.0 mg/kg/injection, schedule: Q01DX001 (ip), vehicle: carboxymethylcellulose (CMC)) was 2 of 4 and the survivor count (T/C endpoint: mean survival time, dose: 400.0 mg/kg/injection, schedule: Q01DX001 (ip), vehicle: carboxymethylcellulose (CMC)) was 0 of 4.

In the case of `Cc1cc(Nc2ccc3c(c2)OCO3)c2cc3c(cc2n1)OCO3`, the survivor count (T/C endpoint: median survival time, dose: 200.0 mg/kg/injection, schedule: Q01DX009 (ip), vehicle: Klucel (hydroxypropylcellulose) (HPC)) is reported as 0 of 6 and the survivor count (T/C endpoint: median survival time, dose: 400.0 mg/kg/injection, schedule: Q01DX009 (ip), vehicle: Klucel (hydroxypropylcellulose) (HPC)) is reported as 0 of 6.

In the case of `COc1cc2c(cc1OC)-c1c(cnn1C1OC(COC(C)=O)C(OC(C)=O)C(OC(C)=O)C1OC(C)=O)CC2` (centres undefined), the survivor count (T/C endpoint: mean survival time, dose: 200.0 mg/kg/injection, schedule: Q01DX005 (ip), vehicle: other) is reported as 6 of 6.

`CC(C)C1(C(C)C)OCCO1` was tested, and the survivor count [2] was 5 of 6.

For `NC(CCl)=NCC1C2CC3CC(C2)CC1C3` (centres undefined), the survivor count (T/C endpoint: mean survival time, dose: 400.0 mg/kg/injection, schedule: Q01DX001 (ip), vehicle: Klucel (hydroxypropylcellulose) (HPC)) was 0 of 3.

In the case of `O=S1(=O)CCC2CCCCC2C1` (centres undefined), the survivor count (T/C endpoint: mean survival time, dose: 50.0 mg/kg/injection, schedule: Q04DX003 (ip), vehicle: saline with Tween-80) is reported as 2 of 6.
